Values of other authors in paper PMC5434815, “The role of histidines in amyloid β fibril assembly” (Febs Letters, 2017).

Settings: cited from earlier work

## Aβ1–40 wt: wild‐type amyloid β 1–40, recombinant, obtained from AlexoTech (Umeå, Sweden) [reference compound]
  extracellular concentration in vivo: around 1 nM
